Source: patent publication US20250296993A1
No constants are given. Whether binding was seen depends on the method and setting. Some results given as binding are weak or reduced against the parent protein; the word gives no strength. Values belong to the binder of their own block, whether it stands above or below them.

Experiments:
[1] = biological target: T1, Natural Fel d 1 (NA-FD1-1, Indoor Biotechnologies), natural Fel d 1 antigen purified from cat hair (cat (Felis domesticus / Felis catus)) (UniProt P30438+P30440); assay: sandwich ELISA standard curves, Fel d 1 200 to 0.098 ng/ml
T1 sequence (looked up) 1: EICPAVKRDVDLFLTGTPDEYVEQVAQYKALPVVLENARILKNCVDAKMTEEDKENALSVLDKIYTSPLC
T1 sequence (looked up) 2: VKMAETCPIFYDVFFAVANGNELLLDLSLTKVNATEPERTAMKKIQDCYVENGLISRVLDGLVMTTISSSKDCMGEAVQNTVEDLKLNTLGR

[2] = biological target: T1, Natural Fel d 1 (NA-FD1-1, Indoor Biotechnologies), natural Fel d 1 antigen purified from cat hair (cat (Felis domesticus / Felis catus)); assay: chequerboard sandwich ELISA, Fel d 1 200 ng/ml; MAb 18 as HRP conjugate (detect)
[3] = biological target: T1, Natural Fel d 1 (NA-FD1-1, Indoor Biotechnologies), natural Fel d 1 antigen purified from cat hair (cat (Felis domesticus / Felis catus)); assay: chequerboard sandwich ELISA, Fel d 1 200 ng/ml; MAb 20 as capture (also as HRP conjugate 20)
[4] = biological target: T1, Natural Fel d 1 (NA-FD1-1, Indoor Biotechnologies), natural Fel d 1 antigen purified from cat hair (cat (Felis domesticus / Felis catus)); assay: chequerboard sandwich ELISA, Fel d 1 200 ng/ml; MAb 9 as capture
[5] = biological target: T1, Natural Fel d 1 (NA-FD1-1, Indoor Biotechnologies), natural Fel d 1 antigen purified from cat hair (cat (Felis domesticus / Felis catus)); assay: ELISA
[6] = biological target: T1, Natural Fel d 1 (NA-FD1-1, Indoor Biotechnologies), natural Fel d 1 antigen purified from cat hair (cat (Felis domesticus / Felis catus)); assay: chequerboard sandwich ELISA, Fel d 1 200 ng/ml; MAb 2 as capture (also as HRP conjugate 2)

B3: Fel d 1 MAb9 (cAb10205, clone 2293.254.030) (antibody, mouse IgG1, kappa, V domains shown)
VH: QVQLQQPGAELVKPGASVKLSCKASGYTFTSYWMYWVKQRPGQGLEWIGEINPSNGRTNYNEKFKTKATLTVDKSSSTAYMQLSSLTSEDSAVYYCARRATMIGGFAYWGQGTLVTVSA
VL: DIVMTQSPSSLTVTTGEKVTMNCKSSQSLLNSANQKNYLTWHQQKPGQPPKLLIYWASTRESGVPDRFTGSGSGTDFTLTISSVQAEDLAVYYCQNDYSFPFTFGSGTKLEIKR
binding [4]: binds | binding [5]: binds

B4: Fel d 1 MAb2 (cAb10204, clone 2291.014.055.067) (antibody, mouse IgG1, kappa, V domains shown)
VH: EVKLMESGGGLVKPGGSLKLSCAASGFTFSSYDMSWVRQTPEKRLEWVATISSGGTYTYYPDSLKGRFTISRDNARNTLYLQMSSLRSEDTALFYCARLLRTYAMDYWGQGTSVTVSS
VL: DIQMNQSPSSLSASLGDTITITCHASQNIIVWLNWYQQKPGNIPKLLIYKASNLHTGVPSRFSGSGSGTGFTLTISSLQPEDIATYYCQQGQSYHTWTFGGGTKLEIKR
binding [6]: binds | binding [1]: binds | binding [5]: binds

The remaining lines, values ahead:

binding [1]: binds | binding [2]: binds
B1: Fel d 1 MAb18 (cAb10206, clone 2297.167.064) (antibody, mouse IgG1, kappa, V domains shown)
VH: QGQMQQSGAELVKPGASVKLSCKTSGFTFSSSYISWLKQKPGQSLEWIAWIYAGTGGTTYNQRFTGKAQLTVDSSSSTAYMHFSSLTTDDSAIYYCARHYGNPPAWFAYWGQGTLVTVSA
VL: DIQMTQSPASLSASVGETVTITCRASGNIHNYLAWFQQRQGKSPQLLVYNAETLADGVPSRFSGSGSGTQYSLKISSLQPEDFGSYFCQHFWSRPPTFGGGTKLEIKR

binding [3]: binds | binding [1]: binds
B2: Fel d 1 MAb20 (cAb10207, clone 2297.179.089) (antibody, mouse IgG1, kappa, V domains shown)
VH: QVQLQQPGTELVRPGASVKLSCKASGYTFTSYWINWVKQRPGQGLEWIGNIYPSDSYTNYNQKFKDKATLTVDKSSSTAYMQLSSPTSDDSAVYYCTRRGNYGNLYYFDYWGQGTTLTVSS
VL: NIVMTQSPKSMSMSVGERVTLSCKASENVGSYVFWYQQKPDQSPKLLIYGASNRYTGVPDRFTGSRSATDFTLTISNVQAEDLADYHCGQSYSYPLTFGAGTKLELKR
